Reference: patent US20230348571A1
These are yes or no findings as the source states them, for the method shown.

Target: H1 NC99, an influenza hemagglutinin protein (influenza virus)
Assay: ELISA (FIG. 10)

B1: 46472-1 (antibody, V domains shown)
VH: QVQLVQSGAEVKKDGSSVKVSCEASGGTFSDYAISWVRQAPGQGLEWMGRIIPILGITNYAQQFQTRVTITADKSTSAVYMELSSLRSKDTAIYYCAREVNYYSAFDDWGQGTQVTVSS
VL: EIVMTQSPDTLSVSPGERATLSCRASQNVSSNLAWYQQKPGQAPRLLIYDASTRATGIPARFSGSGSGTEFTLAISSLQSEDFAVYYCQQYNFWWTFGQGTKVDIK
binding: no binding

B2: 46472-10 (antibody, V domains shown)
VH: EVHLVESGGGLIQPGGSLKLSCAASGFAVSGYYMIWVRQAPGKGLEWVSVIFTSGRTYYADSAKGRFTISRDSSKNTLYLQMDSLRAEDTAVYYCAGFLPVYNNGWSYFDSWGQGTLVTVSS
VL: QSVLTQPPSASGTPGQRVTISCSGSRPNIGNNKVNWYQQLPGTAPKVLIYGNNQRPSGVPDRFSGSKSATSASLAISGLQSEDEADYYCAVWDDSLNGPVFGGGTKLTVL
binding: no binding

B3: 46472-11 (antibody, V domains shown)
VH: EGQLLESGGGLVQPGGSLRLSCEASGFTFSRYAMTWIRQAPGKGLEWVSSITAIPYDRFYADSVKGRFTISRDDSKNMVYLQANSLRVEDTAVYYCVKMRTAVVGVTPLWGQGTLVTVSS
VL: AIQVTQSPSSLSASVGDRITITCRTSQGIRDDLGWYQQKPGKAPTLLIYGATNLQSGVPSRFSGSESGTDFTLTISSLQPEDFATYYCLQDYNYLFSFGPGTKVDIK
binding: no binding

B4: 46472-12 (antibody, V domains shown)
VH: QVQLVQSGAEVQKPGASVKVSCKASGYRFDIFDINWVRQASGQGPEWMGWMNPNSGNTGYAHKFQGRVTMTRDSSTNTAYMELSSLTFEDTAVYYCARDRVERTGNVGFGYYAMDVWGQGTTVIVSS
VL: DIQMTQSPSSLSASVGDRVTITCRASQSITNYLNWYQQRPGKAPRLLIYAASSLQSGVPSRFSGSGSGTDFTLTISSLQPEDFGTFYCQQTYSSPSYTFGQGTKLEMK
binding: no binding

B5: 46472-13 (antibody, V domains shown)
VH: EVQLVESGGGLVPPGGSLGLSCAASGFTFSEFWMSWVRQTPGKGLEWVANIGQDGNSKYYVDSVKGRFTISRDNAKSSLNLQMNSLRAEDTGVYYCARVTIVSSFTNRFDPWGQGVLVTVSS
VL: AIQLTQSPSSLSASIGDRVTFTCRASQDISNFLAWYQQKPGEPPKLLIYSVSTLQSGVPSRFSGSGSGTDFTLTISSLQSEDLATYYCQHRVTFGPGTKVGIK
binding: no binding

B6: 46472-14 (antibody, V domains shown)
VH: EVLLVESGGGVIQPGASLRLSCEPSGTTVSSNFWTWVRQAPGRRLEHVAIIYSGDATYYADSVKGRFTIFRDNSKNMLFLEMNNLKVADSAIYFCVRGRTYWGQGTLVSVSS
VL: EIVMTQSPATLSLSPGDTATLSCRASQSVASNLAWYQQKPGQAPRLLVSGASTRATGIPPRFSGSGSGTEFTLTISSLQSEDFAVYYCQQYNRWLWTFGQGTKVEIK
binding: no binding

B7: 46472-15 (antibody, V domains shown)
V domain 1: QVQLVQSGSELKKPGASVKVSCKASGYTFTSYALNWVRQAPGQGLEWMGWININTGKPTYAQGFTGRFVLSLDTSVSTAYLQISSLKAEDTAVYYCARDFDLVVPSATYPPFYYHGMDVWGQGTTVTVSS
V domain 2: SSELTQDPAVSVALGQTVRITCQGDSLRTYYASWYQQKPGQAPILVIYGKNKRPSGIPDRFSGSSSGNTASLTITGAQAEDEADYYCNSRDSSGDQTFYVFGTGTQVTVL
binding: no binding

B8: 46472-2 (antibody, V domains shown)
VH: EVQLVQSGAEVKKPGESLRISCKGSGYRFITYWISWVRQMPGRGLEWMGKIDPSDSSTNYSPSFQGHVAISVDKSFNTAYLQWSRLNTSDTAMYYCAAGPTGYDLLTGQYFPYFNYWAQGTLVTVSS
VL: NFMLTQPHSVSESPGKTVSISCTRSSGSIASKFMQWYQQRPGSAPTILIYEDNLRPSGVPDRFSGSIDTSSNSALLTISGLKTEDEADYYCQSYHGSDVVFGGGTKLTVL
binding: no binding

B9: 46472-3 (antibody, V domains shown)
VH: QVQLVESGGGVVQPGRSLRLSCAASGFTFSVYPMHWVRQAPGRGLEWVAVISYDGSNQYYADSVRGRFTISRDNSKNTLYLHMNSLRPEDTAVFYCARDRSATYYGPFDYWGQGTLVTVSS
VL: SSELTQDPAVSVALGQTVRITCQGDSLRSYSASWYQQKPSQAPVLVIYANNNRPSGIPDRFSGSNSGNTASLTITGAQAEDEADYYCNSRDNSGNHPVIFGGGTTLTVL
binding: no binding

B10: 46472-4 (antibody, V domains shown)
VH: EVPLLESGGGLVQPGGSLRLSCVASGFPFSSFALSWVRQAPGKGLEWVSTINTNGGTTYYLDSVKGRFTVSRDNSKNTLFLQMSSLRAEDTAIYYCAKDLLSHSGTYSAGSTFDYWGQGTLVIVSS
VL: DIQMTQSPSSLSASVGDRVTITCRASQSIGVYLNWYQQKPGKAPKLLIHATSNLQSGVPSRFSCSGSGTEFTLTISSLQPEDFATYYCQESYSTNTFGQGTKLEIK
binding: no binding

B11: 46472-5 (antibody, V domains shown)
VH: QLRLQASGPGLVRPSVTLSLTCAVSGASVKSDKSYWGWFRQSPGKGLASIATIYYNGNVYYNPSLKSRVTLSLDTSTNQLSLKMRSVTAADTAIYYCARLDYSKQTWGQGILVTVSS
VL: DIVMTQSPRSLPVTPGEPASISCRSSQSLVHTNGYNYLDWYLQKPGQSPQLLIYLASNRASGVPGRFSGSGSGTDFTLKISRVEADDVGVYYCMQALQTPLTFGGGTRLEIK
binding: no binding

B12: 46472-7 (antibody, V domains shown)
VH: GVQLVESGGGLVQPGGSLRLSCSASGFTFSSYAMHWVRQAPGKGLEYVSGINVNGYDTYYADSVKGRFTISRDNSKNTLFLQMISLTAEDTALYYCVKEDTPLVFDSWGQGTLVTVSS
VL: DIQMTQSPSTLSASVGDRVTITCRASQFINSWLAWYQQKPGKAPKLLIYAASSLQSGVPSRFSGSGSGTEFTLTINSLQPDDFATYYCQQYDSYSTFGQGTKVEIK
binding: no binding

B13: 46472-8 (antibody, V domains shown)
VH: EVQLVESGGGFIQPGGSVRLSCSASGFNVYDNYFSWVRQAPGRGPEWVSVIYRDGATRYAESVQGRFTMFRDNSRKTLYLQMNRLKAGDTAVYFCALGRKDYGDYYRWGQGTLVTVSS
VL: EIVLTQSPGTLSLSPGETATLSCRAGQSVRSRFLAWYQQKPGQSPRVLIYGASNRASGVPDRFSGSGSGTDFTLTITRLEPEDVAVYYCQQYAPSPPWYIFGQGTKLEIK
binding: no binding

B14: 46472-9 (antibody, V domains shown)
VH: QVQLQESGPGLVKPSETLSLTCIISGGSVSSGSYYWSWIRQPPGKGLEYIGYIFYSGNTNYNPSLKSRVTISVDTSKNQFSLRLTSVTAADTAVYHCASLPTYGSGRWGIDSWGQGTLVTVSS
VL: DIQMTQSPSSVSASVGDRVTITCRASQDISIWLTWYQQRPGKAPKLLIYAASALQRGVPSRFSGSGSGTDFTLTISSLQPEDFTTYFCQQGNSFPLTFGGGTKVEIK
binding: no binding
